Values from PubChem BioAssay AID686937 (Drosophila RNAi Screening Center, 2013).
In all, the deposit lists about 23,000 reagents; below is a random part of those that have a named target and a result. 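Reduced-secretion tags in replicate 1 do not always agree with the z-scores; no criterion for assigning the tags was given.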 A plus sign joins genes that one reagent is predicted to hit. Reagent sequences are not shown. The record does not give: the amount of reagent.

Screen: 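Genes whose loss weakens secretory pathway function in fly cells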 (primary screen)
Cell system: Drosophila S2 cells expressing secreted horseradish peroxidase
Knock-down reagent: long dsRNA against Drosophila genes
Timing: about 5.5 days (5 days dsRNA, then 12 h reporter induction)
Conditions: reporter expression induced after 5 days of dsRNA, read 12 h later; inducer not stated
Measured: 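After 5 days of dsRNA and 12 h of reporter induction, medium peroxidase read by chemiluminescence and scored as per-plate z-score; higher values mean more reporter released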
Direction: z-score: higher = more reporter secreted into medium

| target gene | amplicon | z-score, replicate 1 | z-score, replicate 2 | phenotype, replicate 1 |
| --- | --- | --- | --- | --- |
| CAH9 | DRSC15963 | 0.36 | 0.51 | – |
| CG14506 | DRSC14858 | 0.45 | 0.61 | – |
| ND-B14.5A | DRSC18500 | 0.36 | 0.28 | – |
| Urm1 | DRSC22941 | -0.44 | -0.2 | – |
| CG42582 (retired record) | DRSC20675 | -0.64 | -0.08 | – |
| CG32773 (retired record) | DRSC17330 | -0.33 | -1.35 | – |
| CG32299 + CG32298 | DRSC07980 | -0.82 | 0.12 | – |
| CG32299 + CG32298 | DRSC22354 | -0.41 | -0.06 | – |
| CG6843 | DRSC10725 | 0.49 | 0.57 | – |
| CG18004 | DRSC06705 | 0.3 | 0.37 | – |
| CG45002 | DRSC20144 | 0.05 | 0.13 | – |
| spartin | DRSC12187 | 0.52 | 0.62 | – |
| key | DRSC04285 | -0.19 | -0.45 | – |
| CG1024 | DRSC12496 | -0.07 | -0.02 | – |
| E(spl)m6-BFM | DRSC16993 | 0.19 | 0.31 | – |
| elB | DRSC03527 | 0.12 | 0.29 | – |
| CG31741 | DRSC02887 | 0.1 | 0.05 | – |
| ND-23 | DRSC15526 | 0.11 | -0.02 | – |
| CtsK1 | DRSC08742 | 0.44 | 0.1 | – |
| Phk-3 | DRSC04547 | 0.43 | 0 | – |
| ovm + CG31975 | DRSC22146 | 0.7 | 0.52 | – |
| Mur18B | DRSC20063 | 0.13 | 0.03 | – |
| Iris | DRSC00663 | 0.36 | 0.55 | – |
| CG13748 | DRSC06419 | 0.26 | -0.07 | – |
| eIF2D | DRSC13916 | -0.11 | -0.92 | – |
| endos | DRSC10658 | 0.59 | 0.18 | – |
| CG8202 | DRSC16396 | 0.23 | 0.67 | – |
| Lip4 | DRSC02930 | -0.2 | -0.22 | – |
| CG10029 | DRSC12498 | 0.33 | 0.43 | – |
| CG8642 | DRSC07228 | 0.37 | 0.29 | – |
| CG31102 | DRSC14260 | 0.28 | 0.21 | – |
| ImpE2 | DRSC08665 | 0.42 | 0.37 | – |
| SmD2 | DRSC12536 | -4.68 | -3 | reduced secretion |

3 entries from above, ordered by “z-score, replicate 1”, high to low:
| target gene | amplicon | z-score, replicate 1 | z-score, replicate 2 | phenotype, replicate 1 |
| --- | --- | --- | --- | --- |
| ovm + CG31975 | DRSC22146 | 0.7 | 0.52 | – |
| Iris | DRSC00663 | 0.36 | 0.55 | – |
| Mur18B | DRSC20063 | 0.13 | 0.03 | – |
